These are yes or no findings as the source states them, for the method shown. Binding can be weak; no strength is given. For some of these results: Binding seen in cells or lysates may run through a third protein. For some of these results: Where a sequence is shown, tags or fusion partners need not be part of it.
B1: endogenous Bcl2l10 (protein, UniProt Q9HD36 1-204)
chain: MVDQLRERTTMADPLRERTELLLADYLGYCAREPGTPEPAPSTPEAAVLRSAAARLRQIHRSFFSAYLGYPGNRFELVALMADSVLSDSPGPTWGRVVTLVTFAGTLLERGPLVTARWKKWGFQPRLKEQEGDVARDCQRLVALLSSRLMGQHRAWLQAQGGWDGFCHFFRTPFPLAFWRKQLVQAFLSCLLTTAFIYLWTRLL
B2: FLAG-Bcl2l10 (protein, UniProt Q9HD36 1-204)
chain: MVDQLRERTTMADPLRERTELLLADYLGYCAREPGTPEPAPSTPEAAVLRSAAARLRQIHRSFFSAYLGYPGNRFELVALMADSVLSDSPGPTWGRVVTLVTFAGTLLERGPLVTARWKKWGFQPRLKEQEGDVARDCQRLVALLSSRLMGQHRAWLQAQGGWDGFCHFFRTPFPLAFWRKQLVQAFLSCLLTTAFIYLWTRLL

Legend:
[1] = target: IP3R (endogenous, crude mitochondria fraction) (human (endogenous in HeLa)); assay: native gel or EMSA; 2D blue-native / SDS-PAGE of a digitonin-solubilised crude mitochondria fraction of HeLa cells; second dimension analysed by western blot
[2] = target: VDAC (endogenous, crude mitochondria fraction) (human (endogenous in HeLa)); assay: as above
GST-IP3R∆CD [3] = assay: pull-down; GST-IP3R∆CD on lysates of HeLa cells expressing HA-IRBIT S68A and FLAG-Bcl2l10 alone or in combination, TNE buffer, 4°C; only the target purified
GST-IP3R∆CD [4] = assay: pull-down; 10 μg GST fusion protein incubated with lysates of transfected HeLa cells, TNE buffer, 4°C, glutathione-Sepharose 4B, elution with 20 mM glutathione, western blot; for HA-IRBIT also with co-expressed FLAG-Bcl2l10 and with 0, 1 or 10 µM IP3; only the target purified

binding [1] | binding [2] | binding (GST-IP3R∆CD [3]) | binding (GST-IP3R∆CD [4]) | Binder
binds | binds | – | – | B1
– | – | binds | binds | B2

Reference: PMC5173324
